Assay results as given in PMC8920271.
These are yes or no findings as the source states them, for the method shown. Binding seen in cells or lysates may run through a third protein. Some results given as binding are weak or reduced against the parent protein; the word gives no strength. Sequences can lack the tags named with a protein.

Chains of the proteins cited; added tags and fusions are not shown.
UniProt P38936: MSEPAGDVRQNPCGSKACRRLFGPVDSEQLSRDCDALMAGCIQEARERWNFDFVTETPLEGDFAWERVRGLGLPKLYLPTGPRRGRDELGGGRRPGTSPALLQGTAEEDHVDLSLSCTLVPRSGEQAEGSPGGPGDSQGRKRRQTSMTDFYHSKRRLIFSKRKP

Molecular target: GST-tagged p21 (UniProt P38936)
Test: pull-down; only the target purified

- binding: binds
B1: HA-tagged HO-1 (protein, UniProt P09601 1-288)
chain: MERPQPDSMPQDLSEALKEATKEVHTQAENAEFMRNFQKGQVTRDGFKLVMASLYHIYVALEEEIERNKESPVFAPVYFPEELHRKAALEQDLAFWYGPRWQEVIPYTPAMQRYVKRLHEVGRTEPELLVAHAYTRYLGDLSGGQVLKKIAQKALDLPSSGEGLAFFTFPNIASATKFKQLYRSRMNSLEMTPAVRQRVIEEAKTAFLLNIQLFEELQELLTHDTKDQSPSRAPGLRQRASNKVQDSAPVETPRGKPPLNTRSQAPLLRWVLTLSFLVATVAVGLYAM
